{
  "source": "paper PMC10558657",
  "molecules": {"B1": {"name": "His-ZDHHC3 (enzyme, UniProt Q9NYG2 1-299)", "chain": "MMLIPTHHFRNIERKPEYLQPEKCVPPPYPGPVGTMWFIRDGCGIACAIVTWFLVLYAEFVVLFVMLIPSRDYVYSIINGIVFNLLAFLALASHCRAMLTDPGAVPKGNATKEFIESLQLKPGQVVYKCPKCCSIKPDRAHHCSVCKRCIRKMDHHCPWVNNCVGENNQKYFVLFTMYIALISLHALIMVGFHFLHCFEEDWTKCSSFSPPTTVILLILLCFEGLLFLIFTSVMFGTQVHSICTDETGIEQLKKEERRWAKKTKWMNMKAVFGHPFSLGWASPFATPDQGKADPYQYVV"}, "B2": {"name": "His-IRHOM2 (protein, UniProt Q6PJF5 1-856)", "chain": "MASADKNGGSVSSVSSSRLQSRKPPNLSITIPPPEKETQAPGEQDSMLPEGFQNRRLKKSQPRTWAAHTTACPPSFLPKRKNPAYLKSVSLQEPRSRWQESSEKRPGFRRQASLSQSIRKGAAQWFGVSGDWEGQRQQWQRRSLHHCSMRYGRLKASCQRDLELPSQEAPSFQGTESPKPCKMPKIVDPLARGRAFRHPEEMDRPHAPHPPLTPGVLSLTSFTSVRSGYSHLPRRKRMSVAHMSLQAAAALLKGRSVLDATGQRCRVVKRSFAFPSFLEEDVVDGADTFDSSFFSKEEMSSMPDDVFESPPLSASYFRGIPHSASPVSPDGVQIPLKEYGRAPVPGPRRGKRIASKVKHFAFDRKKRHYGLGVVGNWLNRSYRRSISSTVQRQLESFDSHRPYFTYWLTFVHVIITLLVICTYGIAPVGFAQHVTTQLVLRNKGVYESVKYIQQENFWVGPSSIDLIHLGAKFSPCIRKDGQIEQLVLRERDLERDSGCCVQNDHSGCIQTQRKDCSETLATFVKWQDDTGPPMDKSDLGQKRTSGAVCHQDPRTCEEPASSGAHIWPDDITKWPICTEQARSNHTGFLHMDCEIKGRPCCIGTKGSCEITTREYCEFMHGYFHEEATLCSQVHCLDKVCGLLPFLNPEVPDQFYRLWLSLFLHAGVVHCLVSVVFQMTILRDLEKLAGWHRIAIIFILSGITGNLASAIFLPYRAEVGPAGSQFGLLACLFVELFQSWPLLERPWKAFLNLSAIVLFLFICGLLPWIDNIAHIFGFLSGLLLAFAFLPYITFGTSDKYRKRALILVSLLAFAGLFAALVLWLYIYPINWPWIEHLTCFPFTSRFCEKYELDQVLH"}},
  "key": {"[1]": {"target": "T1, HA-IRHOM2 WT (human) (UniProt Q6PJF5)", "T1 sequence": "B2 chain", "assay": "co-IP; THLE2 cells transfected with Flag- and HA-tagged IRHOM2 and ZDHHC3 (whole or truncated); blots with anti-HA or anti-Flag"}, "[2]": {"target": "GST-IRHOM2 (UniProt Q6PJF5)", "assay": "pull-down; GST pull-down (MagneGST kit): GST fusion from E. coli extract on GST particles 1 h at 4 °C, then His-tagged partner for 5 h; elution and western blot; both purified"}, "[3]": {"target": "GST-ZDHHC3 (UniProt Q9NYG2)", "assay": "pull-down; GST pull-down (MagneGST kit): GST fusion from E. coli extract on GST particles 1 h at 4 °C, then His-tagged partner for 5 h; elution and western blot; both purified"}},
  "note": "Results are given in words; binding and its absence hold for the method and conditions named. In cells and extracts the contact can be indirect. For part of these data: Binding can be weak; no strength is given. Tags and fused reporters may be left off the sequences shown.",
  "data": [
    {"molecule": "Flag-ZDHHC3 △PDZ (human) (domain or fragment)", "values": [
      {"measurement": "binding", "setting": "[1]", "result": "no binding"}
    ]},
    {"molecule": "B1", "values": [
      {"measurement": "binding", "setting": "[2]", "result": "binds"}
    ]},
    {"molecule": "B2", "values": [
      {"measurement": "binding", "setting": "[3]", "result": "binds"}
    ]}
  ]
}
